Literature values in US10668039B2, “Methods for treatment of adenoid cystic carcinoma” (THE CHILDREN'S MEDICAL CENTER CORPORATION, priority 2016, dated 2020).
At least one structure is not confirmed: it was looked up by name or label, or the drawing left a doubt.

tested on: ACC; details: Phase II trials in ACC; cited from earlier work

Question: For `CCN(CC)CCNC(=O)c1c(C)[nH]c(/C=C2\C(=O)Nc3ccc(F)cc32)c1C` [Sunitinib], which “Objective Response Rate” value is on record?
Answer: 0%

Question: For `CN1CCN(c2ccc3nc(-c4c(N)c5c(F)cccc5[nH]c4=O)[nH]c3c2)CC1` [Dovitinib], which “Objective Response Rate” value is on record?
Answer: 3%

Question: With `Cc1nc(Nc2ncc(C(=O)Nc3c(C)cccc3Cl)s2)cc(N2CCN(CCO)CC2)n1` [Dasatinib] as the compound, how does the “Objective Response Rate” value read?
Answer: 3%
